Measured values as given in publication PMC3695765.
Numbering of substitutions follows the chain as printed. In names and notes the source's numbering stands. No constants are given. Whether binding was seen depends on the method and setting. Binding seen in cells or lysates may run through a third protein. Some binding calls cover weakened binding; strength is not graded here. Tags and fused reporters may be left off the sequences shown.

Protein sequences, listed by entry. Tags and fused reporters are not part of them. Lines headed by an entry give the natural chain unless they say otherwise; changes in a name come on top.
UniProt Q07157: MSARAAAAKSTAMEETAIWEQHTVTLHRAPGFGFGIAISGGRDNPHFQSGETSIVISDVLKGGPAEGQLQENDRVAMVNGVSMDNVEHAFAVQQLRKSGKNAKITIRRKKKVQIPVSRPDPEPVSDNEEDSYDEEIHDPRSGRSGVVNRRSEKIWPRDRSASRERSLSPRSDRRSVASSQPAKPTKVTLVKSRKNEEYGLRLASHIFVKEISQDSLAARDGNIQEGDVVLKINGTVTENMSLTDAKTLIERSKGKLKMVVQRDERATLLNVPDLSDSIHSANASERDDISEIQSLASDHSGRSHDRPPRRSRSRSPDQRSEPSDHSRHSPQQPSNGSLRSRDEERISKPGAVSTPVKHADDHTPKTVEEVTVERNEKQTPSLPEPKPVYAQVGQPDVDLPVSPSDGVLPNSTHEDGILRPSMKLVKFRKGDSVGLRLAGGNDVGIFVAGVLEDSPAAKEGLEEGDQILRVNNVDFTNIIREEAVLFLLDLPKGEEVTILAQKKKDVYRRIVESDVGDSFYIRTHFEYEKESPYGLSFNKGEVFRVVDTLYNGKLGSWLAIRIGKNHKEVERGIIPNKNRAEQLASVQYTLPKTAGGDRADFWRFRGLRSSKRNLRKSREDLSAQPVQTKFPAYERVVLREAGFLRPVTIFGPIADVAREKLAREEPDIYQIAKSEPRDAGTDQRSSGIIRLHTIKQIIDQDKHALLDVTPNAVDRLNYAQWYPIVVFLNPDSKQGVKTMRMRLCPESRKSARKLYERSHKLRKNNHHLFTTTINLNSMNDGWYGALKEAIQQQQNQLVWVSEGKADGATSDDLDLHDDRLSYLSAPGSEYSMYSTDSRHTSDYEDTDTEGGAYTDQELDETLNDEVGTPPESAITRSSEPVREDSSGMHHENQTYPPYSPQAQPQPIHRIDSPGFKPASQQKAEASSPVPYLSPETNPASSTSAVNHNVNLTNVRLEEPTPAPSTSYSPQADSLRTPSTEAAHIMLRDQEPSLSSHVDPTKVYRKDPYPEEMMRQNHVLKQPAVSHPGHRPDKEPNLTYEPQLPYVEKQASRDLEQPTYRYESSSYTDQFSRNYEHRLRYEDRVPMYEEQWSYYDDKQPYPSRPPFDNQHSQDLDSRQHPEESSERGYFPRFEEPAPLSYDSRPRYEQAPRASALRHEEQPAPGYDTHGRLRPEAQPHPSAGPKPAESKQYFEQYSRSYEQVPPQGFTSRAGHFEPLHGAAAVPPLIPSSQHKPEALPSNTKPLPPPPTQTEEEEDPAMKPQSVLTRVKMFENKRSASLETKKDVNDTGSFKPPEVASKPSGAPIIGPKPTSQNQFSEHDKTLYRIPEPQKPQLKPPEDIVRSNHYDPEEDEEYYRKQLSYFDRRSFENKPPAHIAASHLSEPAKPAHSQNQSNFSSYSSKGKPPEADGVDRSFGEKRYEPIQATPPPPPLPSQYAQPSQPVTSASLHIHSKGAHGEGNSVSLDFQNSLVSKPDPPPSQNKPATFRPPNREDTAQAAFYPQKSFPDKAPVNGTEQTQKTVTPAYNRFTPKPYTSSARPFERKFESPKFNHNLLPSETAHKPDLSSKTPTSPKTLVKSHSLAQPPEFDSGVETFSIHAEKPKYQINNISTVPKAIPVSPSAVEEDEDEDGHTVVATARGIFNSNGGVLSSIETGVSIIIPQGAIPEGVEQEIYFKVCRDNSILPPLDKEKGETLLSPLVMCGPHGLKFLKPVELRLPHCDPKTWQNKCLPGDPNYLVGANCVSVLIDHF
UniProt P68400: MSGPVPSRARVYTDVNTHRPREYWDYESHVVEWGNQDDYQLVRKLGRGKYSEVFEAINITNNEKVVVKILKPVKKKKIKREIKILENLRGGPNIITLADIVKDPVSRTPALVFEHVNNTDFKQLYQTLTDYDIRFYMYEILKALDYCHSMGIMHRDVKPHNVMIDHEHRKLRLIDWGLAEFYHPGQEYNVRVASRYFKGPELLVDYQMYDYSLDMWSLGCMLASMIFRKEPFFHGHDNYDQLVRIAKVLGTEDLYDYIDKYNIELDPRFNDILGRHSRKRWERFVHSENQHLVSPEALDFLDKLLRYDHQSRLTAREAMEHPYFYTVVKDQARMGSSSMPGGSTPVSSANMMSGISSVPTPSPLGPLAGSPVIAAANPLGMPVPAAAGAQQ

T1: full-length FLAG-occludin (human) (UniProt Q16625)
T1 sequence: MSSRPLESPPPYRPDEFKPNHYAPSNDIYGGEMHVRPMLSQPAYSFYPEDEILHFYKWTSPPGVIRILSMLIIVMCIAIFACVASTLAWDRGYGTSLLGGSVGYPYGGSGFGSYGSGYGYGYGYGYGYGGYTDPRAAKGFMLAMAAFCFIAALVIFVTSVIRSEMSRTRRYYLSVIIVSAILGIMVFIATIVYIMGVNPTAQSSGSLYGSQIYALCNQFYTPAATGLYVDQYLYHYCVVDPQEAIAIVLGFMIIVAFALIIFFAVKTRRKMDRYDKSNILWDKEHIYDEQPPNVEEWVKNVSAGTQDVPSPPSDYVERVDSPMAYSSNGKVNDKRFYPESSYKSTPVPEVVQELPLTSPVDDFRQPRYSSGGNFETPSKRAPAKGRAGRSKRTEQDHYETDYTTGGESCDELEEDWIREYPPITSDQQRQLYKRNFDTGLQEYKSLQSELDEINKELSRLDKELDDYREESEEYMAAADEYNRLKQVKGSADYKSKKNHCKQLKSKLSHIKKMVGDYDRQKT

T2: human occludin wild type, N-terminal fusion with YFP or CFP (human) (UniProt Q16625)
T2 sequence: T1 sequence

T3: ZO-2 C-terminally fused with CFP (not stated (plasmids of hZO-2 and cZO-2 are named elsewhere in the paper)) (UniProt Q9UDY2)
T3 sequence: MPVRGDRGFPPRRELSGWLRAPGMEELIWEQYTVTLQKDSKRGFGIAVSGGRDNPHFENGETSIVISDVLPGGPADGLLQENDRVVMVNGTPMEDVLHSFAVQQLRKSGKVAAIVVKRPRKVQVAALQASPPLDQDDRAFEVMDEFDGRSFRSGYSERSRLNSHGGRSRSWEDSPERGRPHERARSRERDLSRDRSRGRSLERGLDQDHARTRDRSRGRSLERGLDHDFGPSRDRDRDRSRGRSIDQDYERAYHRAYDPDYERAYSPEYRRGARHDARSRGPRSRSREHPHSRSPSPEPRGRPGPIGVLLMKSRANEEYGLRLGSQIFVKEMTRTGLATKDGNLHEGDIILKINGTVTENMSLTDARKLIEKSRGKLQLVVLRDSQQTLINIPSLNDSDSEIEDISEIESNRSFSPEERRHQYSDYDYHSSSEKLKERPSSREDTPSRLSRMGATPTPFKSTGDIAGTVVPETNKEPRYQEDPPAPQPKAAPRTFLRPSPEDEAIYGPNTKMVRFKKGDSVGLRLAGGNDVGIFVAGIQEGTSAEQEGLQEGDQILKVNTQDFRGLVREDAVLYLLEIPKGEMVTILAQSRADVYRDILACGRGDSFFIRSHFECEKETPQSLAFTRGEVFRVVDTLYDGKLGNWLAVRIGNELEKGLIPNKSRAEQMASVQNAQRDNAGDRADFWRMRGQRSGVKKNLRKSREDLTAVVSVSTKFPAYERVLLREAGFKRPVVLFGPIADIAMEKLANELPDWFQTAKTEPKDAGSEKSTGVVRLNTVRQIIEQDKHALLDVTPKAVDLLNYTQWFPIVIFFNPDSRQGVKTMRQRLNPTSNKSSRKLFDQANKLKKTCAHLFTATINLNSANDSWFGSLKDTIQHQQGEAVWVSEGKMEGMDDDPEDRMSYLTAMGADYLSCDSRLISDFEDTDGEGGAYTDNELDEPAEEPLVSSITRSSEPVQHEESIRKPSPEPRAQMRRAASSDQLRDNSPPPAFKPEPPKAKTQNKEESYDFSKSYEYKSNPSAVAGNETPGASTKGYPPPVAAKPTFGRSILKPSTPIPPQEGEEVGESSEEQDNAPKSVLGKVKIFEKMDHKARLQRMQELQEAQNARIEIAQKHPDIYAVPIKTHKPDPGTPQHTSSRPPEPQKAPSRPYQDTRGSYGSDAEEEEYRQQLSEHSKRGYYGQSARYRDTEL

T4: endogenous ZO-2 of MDCK C11 cells (canine (endogenous in MDCK C11)) (UniProt Q95168)
T4 sequence: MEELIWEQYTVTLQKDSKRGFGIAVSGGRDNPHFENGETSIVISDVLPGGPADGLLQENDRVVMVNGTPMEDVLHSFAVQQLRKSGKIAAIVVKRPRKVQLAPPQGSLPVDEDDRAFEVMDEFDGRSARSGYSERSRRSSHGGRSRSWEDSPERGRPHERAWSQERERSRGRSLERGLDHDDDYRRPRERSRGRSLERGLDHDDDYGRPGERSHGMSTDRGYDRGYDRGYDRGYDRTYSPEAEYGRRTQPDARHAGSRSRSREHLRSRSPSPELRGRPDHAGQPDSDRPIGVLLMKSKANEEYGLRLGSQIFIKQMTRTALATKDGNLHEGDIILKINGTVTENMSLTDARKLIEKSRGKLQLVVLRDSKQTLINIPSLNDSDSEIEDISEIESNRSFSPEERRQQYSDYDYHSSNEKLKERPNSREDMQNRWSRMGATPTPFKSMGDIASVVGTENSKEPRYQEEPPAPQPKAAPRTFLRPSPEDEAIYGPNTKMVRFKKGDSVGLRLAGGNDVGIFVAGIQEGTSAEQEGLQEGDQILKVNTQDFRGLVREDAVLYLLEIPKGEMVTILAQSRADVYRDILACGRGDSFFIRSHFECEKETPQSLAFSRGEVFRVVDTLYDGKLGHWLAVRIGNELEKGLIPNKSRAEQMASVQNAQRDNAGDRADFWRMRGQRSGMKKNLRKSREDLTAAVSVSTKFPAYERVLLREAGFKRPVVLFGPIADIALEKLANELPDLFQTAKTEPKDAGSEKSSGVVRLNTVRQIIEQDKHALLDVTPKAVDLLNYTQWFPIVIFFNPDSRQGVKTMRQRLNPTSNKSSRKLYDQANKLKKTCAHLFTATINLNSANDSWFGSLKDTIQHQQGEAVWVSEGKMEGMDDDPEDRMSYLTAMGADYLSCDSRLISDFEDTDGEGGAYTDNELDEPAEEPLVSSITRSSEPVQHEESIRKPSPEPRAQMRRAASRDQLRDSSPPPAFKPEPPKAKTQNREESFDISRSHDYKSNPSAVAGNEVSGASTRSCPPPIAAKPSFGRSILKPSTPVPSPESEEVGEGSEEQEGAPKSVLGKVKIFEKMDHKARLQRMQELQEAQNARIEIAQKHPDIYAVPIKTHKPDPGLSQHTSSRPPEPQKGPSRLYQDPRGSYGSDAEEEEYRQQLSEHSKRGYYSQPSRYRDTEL

B1: YFP-occludin S408E (protein, UniProt Q16625 1-522)
chain: T1 sequence with S408E
B2: human occludin wild type, N-terminal fusion with YFP or CFP (protein, UniProt Q16625 1-522)
chain: T1 sequence
B3: YFP-occludin T400A/T404A/S408A (protein, UniProt Q16625 1-522)
chain: T1 sequence with T400A, T404A, S408A
B4: wildtype Occ-FLAG3 (p3xFLAG-CMV14-occludin) (protein, UniProt Q16625 1-522)
chain: T1 sequence
B5: Occ-FLAG3 T400A/T404A/S408A (protein, UniProt Q16625 1-522)
chain: T1 sequence with T400A, T404A, S408A
B6: YFP-occludin T400E/T404E/S408E (protein, UniProt Q16625 1-522)
chain: T1 sequence with T400E, T404E, S408E

What was measured:
[1] = target: T1, full-length FLAG-occludin (human); assay: co-IP; HEK-293 cells transiently transfected with FLAG-occludin, HA-CK2α and myc-CK2β; IP with anti-FLAG M2, blot with anti-HA; lysis buffer 50 mM HEPES, 150 mM NaCl, 300 mM sucrose, 0.05 mM ZnCl2, 0.2% Triton X-100, pH 6.8
[2] = target: T2, human occludin wild type, N-terminal fusion with YFP or CFP (human); assay: FRET or BRET; acceptor photobleaching FRET at cell-cell contacts of living co-transfected HEK-293 cells; CFP and YFP fusions; cis-interaction along the cell membrane
[3] = target: C-terminally CFP tagged human ZO-1 (human) (UniProt Q07157); assay: as above
[4] = target: T3, ZO-2 C-terminally fused with CFP (not stated (plasmids of hZO-2 and cZO-2 are named elsewhere in the paper)); assay: as above
[5] = target: T4, endogenous ZO-2 of MDCK C11 cells (canine (endogenous in MDCK C11)); assay: co-IP; MDCK C11 cells transiently transfected with occludin-FLAG3 constructs; endogenous ZO-2 precipitated with anti-ZO-2 and Protein A-Sepharose; blot with anti-FLAG M2; PBS, 0.2% Triton X-100, 1 mM NaVO3, 10 mM NaF

Molecule | binding [2] | binding [3] | further results
CK2 (HA-CK2α and myc-CK2β, co-transfected) (from UniProt P68400 1-391; P67870 1-215) (complex) |  |  | binding [1]: binds
B1 | binds | binds | 
B2 |  | binds | binding [4]: binds
B3 | binds | binds | binding [4]: binds
B4 |  |  | binding [5]: binds
B5 |  |  | binding [5]: binds
B6 | binds | binds | 
